These are yes or no findings as the source states them, for the method shown. In cells and extracts the contact can be indirect. Some results given as binding are weak or reduced against the parent protein; the word gives no strength. For some assays here: Tags and fused reporters may be left off the sequences shown. One block for each binder: values may come before it.
Key:
[1] = biological target: LgBiT-SURF4 (UniProt O15260); assay: split reporter; LgBiT-SURF4 and SmBiT-SEC24A or SmBiT-SEC24C co-expressed in HEK-293TREx double KO cells; NanoGlo Live Cell Substrate, room temperature 15 min; luminescence normalised to WT; also after 4-PBA (4 h) or siRNA against TMED10, TMED2 or LMAN1
[2] = biological target: T1, SP-HA-TMED10 WT (UniProt P49755); assay: cross-linking + co-IP; HEK TREx-293 TMED10 KO cells co-transfected; 0.2 mM DSP in PBS with 0.2 mM CaCl2, RT 30 min; lysis in 1.0% Triton X-100, 150 mM NaCl, 2 mM CaCl2, pH 7.5; anti-HA agarose or anti-V5 on Protein G Sepharose; immunoblot
T1 sequence: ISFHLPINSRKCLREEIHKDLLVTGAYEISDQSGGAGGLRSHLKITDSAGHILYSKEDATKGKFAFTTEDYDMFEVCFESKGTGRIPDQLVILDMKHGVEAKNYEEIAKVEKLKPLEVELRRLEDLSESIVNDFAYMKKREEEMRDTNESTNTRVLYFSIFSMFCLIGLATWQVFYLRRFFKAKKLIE

Sequences of proteins named here, by UniProt entry; tags and fusion partners are left off.
UniProt O15260: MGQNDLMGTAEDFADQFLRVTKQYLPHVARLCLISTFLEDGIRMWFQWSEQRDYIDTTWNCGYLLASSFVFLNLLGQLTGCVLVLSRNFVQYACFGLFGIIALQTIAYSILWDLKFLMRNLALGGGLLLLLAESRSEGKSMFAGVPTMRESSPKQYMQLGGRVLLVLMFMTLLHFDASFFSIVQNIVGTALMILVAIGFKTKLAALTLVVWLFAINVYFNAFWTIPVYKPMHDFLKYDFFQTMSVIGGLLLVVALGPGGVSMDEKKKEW

binding [1]: binds
B1: SmBiT-SEC24A (protein, UniProt O95486 1-1093)
chain: MSQPGIPASGGAPASLQAQNGAALASGSPYTNGPVQNALLSSQESVSQGYNFQLPGSYPHPIPAKTLNPVSGQSNYGGSQGSGQTLNRPPVASNPVTPSLHSGPAPRMPLPASQNPATTPMPSSSFLPEANLPPPLNWQYNYPSTASQTNHCPRASSQPTVSGNTSLTTNHQYVSSGYPSLQNSFIKSGPSVPPLVNPPLPTTFQPGAPHGPPPAGGPPPVRALTPLTSSYRDVPQPLFNSAVNQEGITSNTNNGSMVVHSSYDEIEGGGLLATPQLTNKNPKMSRSVGYSYPSLPPGYQNTTPPGATGVPPSSLNYPSGPQAFTQTPLGANHLTTSMSGLSLQPEGLRVVNLLQERNMLPSTPLKPPVPNLHEDIQKLNCNPELFRCTLTSIPQTQALLNKAKLPLGLLLHPFKDLVQLPVVTSSTIVRCRSCRTYINPFVSFLDQRRWKCNLCYRVNDVPEEFLYNPLTRVYGEPHRRPEVQNATIEFMAPSEYMLRPPQPPVYLFVFDVSHNAVETGYLNSVCQSLLDNLDLLPGNTRTKIGFITFDSTIHFYGLQESLSQPQMLIVSDIEDVFIPMPENLLVNLNESKELVQDLLKTLPQMFTKTLETQSALGPALQAAFKLMSPTGGRMSVFQTQLPTLGVGALKPREEPNHRSSAKDIHMTPSTDFYKKLALDCSGQQVAVDLFLLSGQYSDLASLGCISRYSAGSVYYYPSYHHQHNPVQVQKLQKELQRYLTRKIGFEAVMRIRCTKGLSIHTFHGNFFVRSTDLLSLPNVNPDAGYAVQMSVEESLTDTQLVSFQSALLYTSSKGERRIRVHTLCLPVVSTLNDVFLGADVQAISGLLANMAVDRSMTASLSDARDALVNAVIDSLSAYRSSVLSNQQPGLMVPFSLRLFPLFVLALLKQKSFQTGTNARLDERIFAMCQVKNQPLVYLMLTTHPSLYRVDNLSDEGALNISDRTIPQPPILQLSVEKLSRDGAFLMDAGSVLMLWVGKNCTQNFLSQVLGVQNYASIPQPMTDLPELDTPESARIIAFISWLREQRPFFPILYVIRDESPMKANFLQNMIEDRTESALSYYEFLLHIQQQVNK

binding [2]: no binding
B2: endogenous Cab45 (protein, UniProt Q9BRK5 37-362)
chain: RPANHSSTRERVANREENEILPPDHLNGVKLEMDGHLNRGFHQEVFLGKDLGGFDEDAEPRRSRRKLMVIFSKVDVNTDRKISAKEMQRWIMEKTAEHFQEAMEESKTHFRAVDPDGDGHVSWDEYKVKFLASKGHSEKEVADAIRLNEELKVDEETQEVLENLKDRWYQADSPPADLLLTEEEFLSFLHPEHSRGMLRFMVKEIVRDLDQDGDKQLSVPEFISLPVGTVENQQGQDIDDNWVKDRKKEFEELIDSNHDGIVTAEELESYMDPMNEYNALNEAKQMIAVADENQNHHLEPEEVLKYSEFFTGSKLVDYARSVHEEF
